# Laboratory results as given in PubChem BioAssay AID1224863 (Southern Research Institute, 2016).
# By UniProt entry, the sequences of proteins in these tests, tags left out. Chains listed by the source or under a name are the forms on record and can include a tag or linker.
# UniProt P13569, with tags, fused parts or gaps F508del: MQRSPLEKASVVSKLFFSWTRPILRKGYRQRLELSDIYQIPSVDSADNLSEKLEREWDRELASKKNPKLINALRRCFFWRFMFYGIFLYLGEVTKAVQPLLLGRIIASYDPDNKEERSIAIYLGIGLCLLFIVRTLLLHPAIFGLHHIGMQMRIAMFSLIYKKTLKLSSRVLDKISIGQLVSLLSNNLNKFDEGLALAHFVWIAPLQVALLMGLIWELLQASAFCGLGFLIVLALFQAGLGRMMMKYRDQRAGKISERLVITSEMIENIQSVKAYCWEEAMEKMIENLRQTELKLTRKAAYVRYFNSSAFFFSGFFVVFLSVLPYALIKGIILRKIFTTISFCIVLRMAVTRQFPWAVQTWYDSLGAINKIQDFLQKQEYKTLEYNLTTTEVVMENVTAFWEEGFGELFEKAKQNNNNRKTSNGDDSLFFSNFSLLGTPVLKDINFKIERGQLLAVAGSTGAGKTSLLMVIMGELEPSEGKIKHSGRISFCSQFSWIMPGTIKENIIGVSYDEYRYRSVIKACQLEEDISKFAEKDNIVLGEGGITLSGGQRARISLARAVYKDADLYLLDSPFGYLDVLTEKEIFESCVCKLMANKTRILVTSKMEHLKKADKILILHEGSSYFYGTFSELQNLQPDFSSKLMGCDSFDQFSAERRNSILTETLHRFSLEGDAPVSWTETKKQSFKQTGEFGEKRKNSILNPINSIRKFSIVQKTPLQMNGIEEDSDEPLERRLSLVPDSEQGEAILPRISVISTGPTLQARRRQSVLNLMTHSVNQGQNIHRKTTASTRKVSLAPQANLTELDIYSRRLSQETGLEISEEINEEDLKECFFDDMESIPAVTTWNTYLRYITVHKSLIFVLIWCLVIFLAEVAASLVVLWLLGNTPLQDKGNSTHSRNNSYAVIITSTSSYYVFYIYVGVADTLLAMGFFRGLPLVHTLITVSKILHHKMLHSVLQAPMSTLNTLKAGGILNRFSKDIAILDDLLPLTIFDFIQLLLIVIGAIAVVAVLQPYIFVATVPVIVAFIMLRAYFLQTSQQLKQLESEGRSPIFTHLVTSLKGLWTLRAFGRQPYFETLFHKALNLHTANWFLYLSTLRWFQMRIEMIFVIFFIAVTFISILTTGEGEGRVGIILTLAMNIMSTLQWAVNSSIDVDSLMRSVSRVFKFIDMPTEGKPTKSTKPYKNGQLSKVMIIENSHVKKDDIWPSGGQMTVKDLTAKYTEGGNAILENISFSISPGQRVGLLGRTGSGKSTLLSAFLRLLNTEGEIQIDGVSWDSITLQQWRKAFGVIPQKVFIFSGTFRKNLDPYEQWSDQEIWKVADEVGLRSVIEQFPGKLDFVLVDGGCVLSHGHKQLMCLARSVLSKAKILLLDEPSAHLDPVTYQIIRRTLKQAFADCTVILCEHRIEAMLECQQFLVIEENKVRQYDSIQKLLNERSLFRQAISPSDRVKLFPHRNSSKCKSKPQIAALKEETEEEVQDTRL
# This is one part of the list.
# Key:
# [1] = total CFTR protein upregulators, primary screen, cell-based, HeLa F508del-CFTR, immunofluorescence, viability (AID 1224863); details: 24 h, stronger effect = higher value; min viability: measured here: HeLa viability, alamarBlue, dose 50, library dosed in µM; viability: measured here: primary viability 25 uM, at 25 µM, library dosed in µM;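 on fold increase: total CFTR protein by anti-CFTR immunofluorescence in fixed cells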
# [2] = target: Cystic fibrosis transmembrane conductance regulator (Homo sapiens) (UniProt P13569); assay: as above; details: 24 h, measured here: primary screen single dose 25 uM, at 25 µM, library dosed in µM, stronger effect = higher value
compound,measurement,setting,value
CN(CCCl)CCCl,min viability,[1],6.58%
same,viability,[1],63%
same,fold increase,[2],1.55
